In patent US9623012B2, “Formulation comprising benzothiazolone compound” (priority 2013, dated 2017):

System: Male Wistar Han IGS rats
Type: in vivo
Settings: rat, s.c. minipump 4 weeks; formoterol 0.003-0.03, Compound A 0.01-0.1 mg/kg/day

Structure (SMILES): COc1ccc(CC(C)NCC(O)c2ccc(O)c(NC=O)c2)cc1 (stereo not shown) [Formoterol, reference compound]
- skeletal muscle mass and heart mass increase (FIG. 1): induces both skeletal muscle hypertrophy and heart mass increase to the same extent
